Results are given in words; binding and its absence hold for the method and conditions named. Binding seen in cells or lysates may run through a third protein. Some binding calls cover weakened binding; strength is not graded here. Sequences can lack the tags named with a protein.

Test [1] addresses T1, Mtb FecB-FLAG (Rv3044) (M. tuberculosis) (UniProt A5U758).
T1 sequence: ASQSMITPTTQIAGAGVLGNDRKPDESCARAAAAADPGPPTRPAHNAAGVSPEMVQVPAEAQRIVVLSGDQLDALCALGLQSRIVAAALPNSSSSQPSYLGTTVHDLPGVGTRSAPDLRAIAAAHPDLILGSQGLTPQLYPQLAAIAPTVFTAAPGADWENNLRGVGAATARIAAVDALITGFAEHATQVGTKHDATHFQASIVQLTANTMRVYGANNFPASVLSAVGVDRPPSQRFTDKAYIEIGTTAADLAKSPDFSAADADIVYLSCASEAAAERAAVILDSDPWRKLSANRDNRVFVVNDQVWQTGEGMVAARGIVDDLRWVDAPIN
Nature of the test: co-IP.

The target of test [2] is T2, Mtb MmpS5-HA (Rv0677c) (M. tuberculosis) (UniProt P9WJS7).
T2 sequence: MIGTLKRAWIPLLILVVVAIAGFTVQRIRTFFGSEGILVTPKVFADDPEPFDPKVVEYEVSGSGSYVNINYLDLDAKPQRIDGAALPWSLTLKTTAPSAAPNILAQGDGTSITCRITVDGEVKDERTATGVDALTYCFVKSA
Nature of the test: co-IP.

B1: Mtb MmpS5-HA (Rv0677c) (protein, UniProt P9WJS7 1-142)
chain: MIGTLKRAWIPLLILVVVAIAGFTVQRIRTFFGSEGILVTPKVFADDPEPFDPKVVEYEVSGSGSYVNINYLDLDAKPQRIDGAALPWSLTLKTTAPSAAPNILAQGDGTSITCRITVDGEVKDERTATGVDALTYCFVKSA
As to B1, in test [1], the binding result is “binds”.

B2: Mtb FecB-FLAG (Rv3044) (protein, UniProt A5U758 29-359)
chain: ASQSMITPTTQIAGAGVLGNDRKPDESCARAAAAADPGPPTRPAHNAAGVSPEMVQVPAEAQRIVVLSGDQLDALCALGLQSRIVAAALPNSSSSQPSYLGTTVHDLPGVGTRSAPDLRAIAAAHPDLILGSQGLTPQLYPQLAAIAPTVFTAAPGADWENNLRGVGAATARIAAVDALITGFAEHATQVGTKHDATHFQASIVQLTANTMRVYGANNFPASVLSAVGVDRPPSQRFTDKAYIEIGTTAADLAKSPDFSAADADIVYLSCASEAAAERAAVILDSDPWRKLSANRDNRVFVVNDQVWQTGEGMVAARGIVDDLRWVDAPIN
As for B2, the binding entry in test [2] was “binds”.
